Measurements from the supplement of paper PMC12067093, “Discovery and optimisation of a covalent ligand for TRIM25 and its application to targeted protein ubiquitination” (Chemical Science, 2025).
Some of the results follow.

The chains behind the UniProt entries cited, without tags or fusion partners. Where a name states a change or a piece, a line headed by the entry shows the natural chain unless it says otherwise.
UniProt Q01459: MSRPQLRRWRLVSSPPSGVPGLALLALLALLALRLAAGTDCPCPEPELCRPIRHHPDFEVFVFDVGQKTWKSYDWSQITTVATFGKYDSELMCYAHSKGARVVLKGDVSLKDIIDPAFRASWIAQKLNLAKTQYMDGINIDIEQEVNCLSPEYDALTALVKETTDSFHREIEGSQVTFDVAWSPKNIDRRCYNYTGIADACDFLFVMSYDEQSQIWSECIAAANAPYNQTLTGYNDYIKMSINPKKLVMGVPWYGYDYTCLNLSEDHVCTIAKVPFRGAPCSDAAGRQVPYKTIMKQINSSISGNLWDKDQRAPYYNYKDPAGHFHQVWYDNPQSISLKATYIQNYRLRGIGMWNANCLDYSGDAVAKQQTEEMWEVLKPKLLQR
UniProt O75718: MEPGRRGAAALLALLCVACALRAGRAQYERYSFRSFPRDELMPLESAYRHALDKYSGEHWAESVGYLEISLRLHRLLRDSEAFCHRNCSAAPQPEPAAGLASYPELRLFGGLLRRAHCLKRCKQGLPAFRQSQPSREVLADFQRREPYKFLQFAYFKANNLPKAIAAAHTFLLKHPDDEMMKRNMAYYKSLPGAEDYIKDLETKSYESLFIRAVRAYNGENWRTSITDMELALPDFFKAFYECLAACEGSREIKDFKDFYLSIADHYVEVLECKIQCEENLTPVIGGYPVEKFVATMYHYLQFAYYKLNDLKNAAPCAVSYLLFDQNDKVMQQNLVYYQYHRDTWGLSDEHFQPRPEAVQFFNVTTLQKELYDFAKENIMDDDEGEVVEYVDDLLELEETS
UniProt Q86YQ8: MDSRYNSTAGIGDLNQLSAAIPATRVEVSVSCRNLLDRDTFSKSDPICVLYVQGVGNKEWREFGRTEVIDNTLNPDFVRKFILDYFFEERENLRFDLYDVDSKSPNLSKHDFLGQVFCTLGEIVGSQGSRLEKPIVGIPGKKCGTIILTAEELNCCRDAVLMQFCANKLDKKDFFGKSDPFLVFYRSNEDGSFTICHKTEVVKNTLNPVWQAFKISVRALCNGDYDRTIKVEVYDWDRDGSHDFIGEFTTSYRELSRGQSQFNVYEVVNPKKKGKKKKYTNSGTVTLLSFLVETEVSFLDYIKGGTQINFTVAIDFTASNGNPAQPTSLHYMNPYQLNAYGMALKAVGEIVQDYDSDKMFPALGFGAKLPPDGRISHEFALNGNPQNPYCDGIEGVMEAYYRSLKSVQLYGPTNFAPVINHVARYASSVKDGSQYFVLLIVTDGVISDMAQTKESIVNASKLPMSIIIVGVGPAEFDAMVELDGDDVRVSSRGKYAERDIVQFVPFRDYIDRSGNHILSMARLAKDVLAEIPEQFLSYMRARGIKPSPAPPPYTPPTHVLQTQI
UniProt Q9UKF6: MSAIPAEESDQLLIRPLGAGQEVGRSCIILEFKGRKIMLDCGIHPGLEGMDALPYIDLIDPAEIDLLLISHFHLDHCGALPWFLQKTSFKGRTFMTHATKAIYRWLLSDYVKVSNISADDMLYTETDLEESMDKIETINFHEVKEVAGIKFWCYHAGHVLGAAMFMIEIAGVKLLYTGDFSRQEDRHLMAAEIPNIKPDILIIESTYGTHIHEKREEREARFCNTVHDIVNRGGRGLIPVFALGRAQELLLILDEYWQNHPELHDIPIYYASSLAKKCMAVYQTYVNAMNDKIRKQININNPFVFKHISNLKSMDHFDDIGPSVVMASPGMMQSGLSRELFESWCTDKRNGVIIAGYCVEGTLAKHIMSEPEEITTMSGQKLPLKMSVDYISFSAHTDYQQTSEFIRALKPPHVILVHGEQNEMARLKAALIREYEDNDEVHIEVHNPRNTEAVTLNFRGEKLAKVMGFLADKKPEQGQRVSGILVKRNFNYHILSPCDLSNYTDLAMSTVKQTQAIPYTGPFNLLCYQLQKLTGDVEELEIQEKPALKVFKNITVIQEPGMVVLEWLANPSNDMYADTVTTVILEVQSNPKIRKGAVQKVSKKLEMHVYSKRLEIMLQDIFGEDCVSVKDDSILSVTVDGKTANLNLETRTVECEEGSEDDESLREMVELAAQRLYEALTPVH
UniProt Q12996: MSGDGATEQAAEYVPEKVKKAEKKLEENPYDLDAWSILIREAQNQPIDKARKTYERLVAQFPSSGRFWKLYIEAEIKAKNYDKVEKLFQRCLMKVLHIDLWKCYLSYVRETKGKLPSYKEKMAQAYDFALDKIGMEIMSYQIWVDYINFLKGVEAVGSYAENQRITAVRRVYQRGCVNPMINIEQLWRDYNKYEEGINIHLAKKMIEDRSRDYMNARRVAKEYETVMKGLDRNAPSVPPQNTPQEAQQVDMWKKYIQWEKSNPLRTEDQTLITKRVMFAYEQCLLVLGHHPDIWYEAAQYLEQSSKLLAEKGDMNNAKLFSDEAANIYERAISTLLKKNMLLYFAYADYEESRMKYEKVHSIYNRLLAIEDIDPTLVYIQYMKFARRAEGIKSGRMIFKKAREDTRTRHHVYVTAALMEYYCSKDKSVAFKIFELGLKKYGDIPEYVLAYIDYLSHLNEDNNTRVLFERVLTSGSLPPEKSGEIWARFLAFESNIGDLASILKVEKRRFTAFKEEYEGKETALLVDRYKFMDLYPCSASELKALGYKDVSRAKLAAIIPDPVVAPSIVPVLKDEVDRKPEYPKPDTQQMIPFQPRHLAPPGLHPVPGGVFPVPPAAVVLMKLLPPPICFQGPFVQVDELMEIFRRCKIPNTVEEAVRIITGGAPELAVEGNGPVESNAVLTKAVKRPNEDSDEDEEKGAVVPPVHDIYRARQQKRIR
UniProt P23786: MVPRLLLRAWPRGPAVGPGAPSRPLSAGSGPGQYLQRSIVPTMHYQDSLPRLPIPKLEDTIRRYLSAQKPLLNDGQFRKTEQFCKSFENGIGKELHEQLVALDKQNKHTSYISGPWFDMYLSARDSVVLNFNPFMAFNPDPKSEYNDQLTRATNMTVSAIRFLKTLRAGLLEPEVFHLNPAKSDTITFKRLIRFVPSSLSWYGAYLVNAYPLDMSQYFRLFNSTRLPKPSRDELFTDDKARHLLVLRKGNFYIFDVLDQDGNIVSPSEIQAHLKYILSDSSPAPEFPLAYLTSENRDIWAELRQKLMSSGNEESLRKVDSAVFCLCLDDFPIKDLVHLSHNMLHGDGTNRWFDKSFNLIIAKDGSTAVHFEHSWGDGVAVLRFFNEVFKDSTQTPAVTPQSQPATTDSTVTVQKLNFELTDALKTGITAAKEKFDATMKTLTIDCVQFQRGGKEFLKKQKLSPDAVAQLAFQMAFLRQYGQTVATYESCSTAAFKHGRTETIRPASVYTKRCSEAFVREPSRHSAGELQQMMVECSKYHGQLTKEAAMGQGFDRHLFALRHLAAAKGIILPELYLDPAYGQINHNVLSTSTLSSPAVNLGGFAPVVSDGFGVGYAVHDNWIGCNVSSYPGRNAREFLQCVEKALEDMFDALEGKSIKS

Compound: Cc1cc(ccc1-c1ccccc1)C(=O)N1CCCN(CC1)C(=O)CCl [compound 10]
Experiment: probe-labelled cysteine peptide fold change vs DMSO (competition) (log2 fold change); higher = less target engagement (more negative = stronger competition)
Settings: THP-1, incubation time: 4 h
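Note: competitive profiling in live THP-1 cells: cysteine peptides tagged with an iodoacetamide desthiobiotin (IA-DTB) probe, intensity after compound treatment relative to DMSO-treated cells.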

Row | Target | probe-labelled cysteine peptide fold change (10 µM) | probe-labelled cysteine peptide fold change (50 µM)
1 | CTBS_Q01459_93_YDSELMCYAHSK (UniProt Q01459) | -0.068 | -0.302
2 | CRTAP_O75718_317_NAAPCAVSYLLFDQNDK (UniProt O75718) | -0.0243 | 0.372
3 | CPNE8_Q86YQ8_196_SNEDGSFTICHK (UniProt Q86YQ8) | 0.205 | 0.413
4 | CPSF3_Q9UKF6_626_RLEIMLQDIFGEDCVSVK (UniProt Q9UKF6) | -0.0218 | 0.198
5 | CSTF3_Q12996_422_HHVYVTAALMEYYCSK (UniProt Q12996) | 0.0714 | 0.482
6 | CRTAP_O75718_84_DSEAFCHR (UniProt O75718) | -0.0976 | -0.0194
7 | CPT2_P23786_445_TLTIDCVQFQR (UniProt P23786) | -0.132 | -0.0126
